Source: US12286625B2, “Inhibition of mir-22 miRNA by APT-110” (AptamiR Therapeutics, Inc., priority 2016, dated 2025)
At least one structure is not confirmed: it was looked up by name or label, or the drawing left a doubt.

System: human subcutaneous adipocytes
Experiment: O2 consumption rate (OCR), Seahorse XF24 with XF Palmitate-BSA Fatty Acid Oxidation kit, human subcutaneous adipocytes
Type: cell-based
Procedure: To characterize the effects of miR-22-3p inhibition on energy utilization in human subcutaneous adipocytes in culture, O2 consumption rate (OCR) was measured with the XF24 Analyzer (Seahorse Bioscience) using the XF Palmitate-BSA Fatty Acid Oxidation substrate kit during the successive addition of Oligomycin, FCCP, and Antimycin/Rotenone, following the manufacturer instructions.
Human subcutaneous pre-adipocytes (ZenBio, NC) were seeded into 96-well plates and differentiated for 7 days, then placed in maintenance medium according to the manufacturer's instructions. On Day 14, the adipocytes were transfected with 50 nM of the miR-22-3p inhibitor APT-110. Medium was exchanged every 2 to 3 days and Seahorse assay was performed on Day 21. Negative control was bovine serum albumin (BSA) and positive control was 100 nM rosiglitazone throughout the culture.

## CN(CCOc1ccc(CC2SC(=O)NC2=O)cc1)c1ccccn1 (centres unmarked) [Rosiglitazone]
Rosiglitazone alone, + Palmitate, + Palmitate + Etomoxir
  source of effects on OCR (palmitate, etomoxir): mainly due to the utilization of endogenous fatty acids
Rosiglitazone 100 nM vs BSA
  proton leak (uncoupling), ATP turnover, reserve capacity and non-mitochondrial respiration: increased
